Data as given in PubChem BioAssay AID1259314 (Drosophila RNAi Screening Center, 2017).

Aim: 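Modifiers of manganese chloride toxicity in fly cells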 (primary screen)
System: Drosophila S2R+ cells
Knock-down reagent: long dsRNA against Drosophila genes
Timing: 5 days (4 days knock-down, then 1 day metal exposure)
Treatment: manganese chloride added to 15 mM for 24 hours
Measured: 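Luciferase ATP signal used as a proxy for viable cell number, reported as one averaged z-score per dsRNA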
Scale: mean ATP z-score: higher = more ATP than the plate average, more viable cells under manganese
Hit rule: 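a mean ATP z-score past 1.5 in either direction is called active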
Calls: active = strong ATP change, up or down; inactive = no strong ATP change
This is a random part of about 3,100 reagents tested. 289 of them (9.3%) count as active. 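Active includes both higher and lower ATP than plate average; check the z-score sign for direction.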 The record does not give: the amount of reagent.

no.	gene	dsRNA	mean ATP z-score	outcome
1	AstC-R2 (Allatostatin C receptor 2)	DRSC23467	-0.814	inactive
2	AstC-R2 (Allatostatin C receptor 2)	DRSC39469	0.0744	inactive
3	Ir75a (Ionotropic receptor 75a)	DRSC10188	-0.369	inactive
4	Ir75a (Ionotropic receptor 75a)	DRSC39494	2.53	active
5	VhaPPA1-2 (Vacuolar H[+] ATPase PPA1 subunit 2)	DRSC16176	0.841	inactive
6	VhaPPA1-2 (Vacuolar H[+] ATPase PPA1 subunit 2)	DRSC25591	-0.274	inactive
7	CG33181	DRSC17971	0.152	inactive
8	CG33181	DRSC29457	0.413	inactive
9	CG8389	DRSC22855	0.166	inactive
10	CG8389	DRSC28233	0.965	inactive
11	Tango9 (Transport and Golgi organization 9)	DRSC14173	0.245	inactive
12	Mrp5 (Multidrug resistance protein 5)	DRSC15597	-0.814	inactive
13	Mrp5 (Multidrug resistance protein 5)	DRSC15598	1.31	inactive
14	Mrp5 (Multidrug resistance protein 5)	DRSC25669	-1.3	inactive
15	Nmda1 (N-methyl-D-aspartate receptor-associated protein)	DRSC07479	-0.844	inactive
16	Nmda1 (N-methyl-D-aspartate receptor-associated protein)	DRSC26357	0.787	inactive
17	Ir41a (Ionotropic receptor 41a)	DRSC04730	0.0319	inactive
18	Ir41a (Ionotropic receptor 41a)	DRSC04875	-0.0432	inactive
19	Gfrl (Glial cell line-derived neurotrophic family receptor-like)	DRSC15196	0.192	inactive
20	Gfrl (Glial cell line-derived neurotrophic family receptor-like)	DRSC25385	0.718	inactive
21	ds (dachsous)	DRSC00815	0.124	inactive
22	nrv1 (nervana 1)	DRSC03382	-1.64	active
23	KCNQ (KCNQ potassium channel)	DRSC06230	-1.1	inactive
24	KCNQ (KCNQ potassium channel)	DRSC25242	-1.14	inactive
25	CG14511	DRSC14863	0.441	inactive
26	CG14511	DRSC26574	-1.27	inactive
27	PGRP-LB (Peptidoglycan recognition protein LB)	DRSC14926	-0.426	inactive
28	PGRP-LB (Peptidoglycan recognition protein LB)	DRSC39813	6.03	active
29	CG1213	DRSC12191	0.0867	inactive
30	CG7840	DRSC03075	-1.22	inactive
31	CG7840	DRSC39867	-0.0502	inactive
32	CG17991	DRSC15294	0.555	inactive
33	CG2003	DRSC15411	0.652	inactive
34	CG2003	DRSC39782	-0.397	inactive
35	CG46441	DRSC15561	0.127	inactive
36	CG46441	DRSC24659	-0.536	inactive
37	CG34011	DRSC00888	0.0833	inactive
38	CG34011	DRSC39571	-0.443	inactive
39	CG42322	DRSC15112	-0.0992	inactive
40	CG42322	DRSC15113	0.772	inactive
41	CG5281	DRSC15761	-0.172	inactive
42	CG5281	DRSC39880	-0.251	inactive
43	CG13907	DRSC08377	-1.47	inactive
44	CG13907	DRSC25983	-0.455	inactive
45	rumpel	DRSC18436	-0.451	inactive
46	rumpel	DRSC39504	0.524	inactive
47	Ir56d (Ionotropic receptor 56d)	DRSC06590	-0.437	inactive
48	Ir56d (Ionotropic receptor 56d)	DRSC28383	-0.419	inactive
49	sns (sticks and stones)	DRSC07687	-1.4	inactive
50	sns (sticks and stones)	DRSC07691	-0.8	inactive
51	CG14194	DRSC19549	-0.587	inactive
52	GluRIIB (Glutamate receptor IIB)	DRSC03335	0.0565	inactive
53	GluRIIB (Glutamate receptor IIB)	DRSC39568	0.631	inactive
54	tw (twisted)	DRSC18537	0.0584	inactive
55	tw (twisted)	DRSC39796	1.45	inactive
56	Gr93c (Gustatory receptor 93c)	DRSC14587	0.271	inactive
57	Gr59f (Gustatory receptor 59f)	DRSC04499	0.351	inactive
58	Gr59f (Gustatory receptor 59f)	DRSC27044	-0.537	inactive
59	yin	DRSC21889	-0.0804	inactive
60	yin	DRSC39804	-0.68	inactive
61	Cad99C (Cadherin 99C)	DRSC15050	0.0977	inactive
62	Cad99C (Cadherin 99C)	DRSC16317	0.204	inactive
63	CG14219	DRSC19576	1.38	inactive
64	CG14219	DRSC26450	0.787	inactive
65	rt (rotated abdomen)	DRSC11391	-1.13	inactive
66	rt (rotated abdomen)	DRSC39519	-0.231	inactive
67	Ir10a (Ionotropic receptor 10a)	DRSC18891	1.75	active
68	Ir10a (Ionotropic receptor 10a)	DRSC19478	-0.266	inactive
69	Ir10a (Ionotropic receptor 10a)	DRSC19479	-0.454	inactive
70	Or65c (Odorant receptor 65c)	DRSC21312	-0.753	inactive
71	Or65c (Odorant receptor 65c)	DRSC39421	6.08	active
72	Orai	DRSC22061	0.269	inactive
73	Orai	DRSC39837	-0.163	inactive
74	rasp	DRSC08191	-0.685	inactive
75	rasp	DRSC39831	-0.986	inactive
76	robo2 (roundabout 2)	DRSC00377	1.66	active
77	robo2 (roundabout 2)	DRSC00686	-1.03	inactive
78	CG13229	DRSC06349	1.39	inactive
79	Osi6 (Osiris 6)	DRSC12128	-1.59	active
80	Osi6 (Osiris 6)	DRSC25935	-0.83	inactive
81	Recs1	DRSC16545	-0.143	inactive
82	Recs1	DRSC39698	0.524	inactive
83	Amt (Ammonium transporter)	DRSC16055	0.049	inactive
84	Amt (Ammonium transporter)	DRSC27970	0.625	inactive
85	path (pathetic)	DRSC10361	-1.84	active
86	path (pathetic)	DRSC39838	0.582	inactive
87	Ktl (Kctd12-like)	DRSC14270	-0.896	inactive
88	tank	DRSC00461	0.457	inactive
89	CG15279	DRSC01935	0.188	inactive
90	CG15279	DRSC27347	-0.697	inactive
91	Ptp4E (Protein tyrosine phosphatase 4E)	DRSC18701	-0.0392	inactive
92	Ptp4E (Protein tyrosine phosphatase 4E)	DRSC36632	-0.148	inactive
93	Ptp4E (Protein tyrosine phosphatase 4E)	DRSC36633	-0.201	inactive
94	MsR2 (Myosuppressin receptor 2)	DRSC08337	-0.0527	inactive
95	MsR2 (Myosuppressin receptor 2)	DRSC22440	-1.29	inactive
96	MsR2 (Myosuppressin receptor 2)	DRSC26863	-0.0522	inactive
97	CG6660	DRSC16087	-0.0913	inactive
98	Ent1 (Equilibrative nucleoside transporter 1)	DRSC00330	1.32	inactive
99	CG1909	DRSC17150	0.713	inactive
100	CG1909	DRSC39638	0.0923	inactive
101	cac (cacophony)	DRSC20354	-0.13	inactive
102	cac (cacophony)	DRSC39146	-0.0529	inactive
103	Ptp69D (Protein tyrosine phosphatase 69D)	DRSC11258	-1.03	inactive
104	Ptp69D (Protein tyrosine phosphatase 69D)	DRSC36691	-0.249	inactive
105	Ptp69D (Protein tyrosine phosphatase 69D)	DRSC36692	-0.379	inactive
106	CG10413	DRSC02052	0.15	inactive
107	Oatp30B (Organic anion transporting polypeptide 30B)	DRSC02727	0.534	inactive
108	Oatp30B (Organic anion transporting polypeptide 30B)	DRSC39872	-1.28	inactive
109	Orct (Organic cation transporter)	DRSC16777	0.0206	inactive
110	Orct (Organic cation transporter)	DRSC25574	-1.57	active
